These results are taken from US20180000725A1, “ORALLY-DISSOLVING FILMS FOR DRUG DELIVERY THROUGH THE ORAL CAVITY” (The Chinese University of Hong Kong, priority 2016, published 2018).

A short description of data set [1]: In vivo pharmacokinetic study of nifedipine / NIF-ODF.
The conditions of data set [2]: nifedipine, oral; cited from earlier work.
The mark [3] stands for this setting: New Zealand Albino, rabbit, in vivo, po, 1 mg/kg.

Regarding `COC(=O)C1=C(C)NC(C)=C(C(=O)OC)C1c1ccccc1[N+](=O)[O-]` [nifedipine, Nifedipine], in data set [1] (setting [3]), the AUC(0-t) is 226 ng·h/mL and the half-life turned out to be 11.4 ± 1.68 h. The “λz” value in data set [1] (rabbits, nifedipine neat drug 1 mg/kg, oral gavage, n = 3) was 0.0011 ± 0.0002 min⁻¹. In addition, the “half-life time (t1/2)” value in data set [2] is 2 to 5 h.

As a reminder, the AUC(0-t) is exposure summed from dosing to a finite time, without extrapolation to infinity. A higher AUC(0-t) goes with more exposure. By half-life is commonly meant the time in which the quantity being followed falls by half.
